Measurements as given in the supplement of paper PMC10338343.
± gives the standard deviation. Only a part is listed here, and it is no random draw. The uncertainty is large for many entries.

Columns and labels:
[1] = system: MILI (PIWIL2) piRISC loaded with piRNA #1 (26 nt); experiment: pre-steady-state target cleavage rate (min^-1); MIWI and MILI are mouse PIWI proteins and EfPiwi is from a freshwater sponge; tags in brackets are library labels; higher = faster piRNA-guided slicing of the target; details: guide: piRNA #1 5'p-UGAGGUAGUAGGUUGUAUAGUAUCCA; auxiliary factor: 500 nM mouse GTSF1
Outline: (§1)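 Cleave-'n-Seq: 1 nM active affinity-purified piRISC with one synthetic guide and 0.1 nM transcribed, DNA-blocked target RNA library were mixed, with or without 500 nM GTSF1 partner protein, in HEPES–potassium acetate buffer at 33 °C for 0–8 or 0–960 min. Uncleaved targets were sequenced and normalised to depth and to weakly complementary targets, three trials were pooled, and k3 was capped at 0.0001 min^-1. The pre-steady-state cleavage rate was fitted […].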

[2] = system: MIWI (PIWIL1) piRISC loaded with piRNA #1 (30 nt); experiment: as above; details: guide: piRNA #1 5'p-UGAGGUAGUAGGUUGUAUAGUAUCCAGAGG; auxiliary factor: 500 nM mouse GTSF1
Outline: as §1

Sequence	pre-steady-state target cleavage rate [1]	pre-steady-state target cleavage rate [2]
GGAGACCUAUGAUAUCAACCUACUACUUCA	0.00116 ± 0.0041	0.000326 ± 0.0051
GGAGACCUAUGAUAACAACGUACUACCACA	0.00128 ± 0.0045	0.000509 ± 0.011
GGAGUGGAUACUAUACGAACCUACUACCUCA	0.000528 ± 0.011	0.000683 ± 0.0081
GGAGACCUAUGAUAUGUUGGUAAUACCUCA	0.000314 ± 0.022	0.000514 ± 0.011
GGAGACCUUACUAUACAACCGUACUACCUCA	0.00868 ± 0.0053	0.000621 ± 0.016
GGAGACCUAUGAUUACAACCUACACCUCA	0.000292 ± 0.016	0.000407 ± 0.013
GGAGACCUAUGAAUACAACCUAGUACCACA	0.00107 ± 0.0075	0.000337 ± 0.009
GGAGACCUAUGAAUACAACCUACUUCCACA	0.00127 ± 0.0038	0.000191 ± 0.0084
GGAGACCUAUGAAUAUCAACCUACUACCUCA	0.00209 ± 0.0026	0.000212 ± 0.015
GGAGACCUAUGAUAUCAACCUACUACACUCA	0.00216 ± 0.0036	0.000964 ± 0.0058
GGAGACCUAACUAUACAAGGAACUACCUCA	0.00395 ± 0.0051	0.000571 ± 0.0098
GGAGACCUAUGAAUAGUUCCUACUACCUCA	0.000153 ± 0.02	0.000107 ± 0.015
GGAGACCUAUGAUAUCAACCUACUAACUCA	0.00173 ± 0.0037	0.000383 ± 0.005
GGAGACCUAACUAAUGAACCUACUACCUCA	0.00355 ± 0.0039	0.000177 ± 0.028
GGAGACCUUACUAUACUUGCUACUACCUCA	0.0548 ± 0.0062	0.00197 ± 0.0025
GGAGACCUAUGAUAUGUACCUACUACCUCC [g2:g13:cont:t1C]	0.000125 ± 0.025	0.000143 ± 0.013
GGAGACCUAUGAUAUGUUGCUACUACCUGCA	0.000358 ± 0.013	0.000652 ± 0.0061
GGAGACCUAUGAUAUGUACCUAACUACCUCA	0.000241 ± 0.011	0.000139 ± 0.025
GGAGACCUAUGAUUAGUUCCUACUACCUCA	0.0002 ± 0.013	0.000797 ± 0.0055
GGAGACCUUACUAUACUUGGAUGAUGGAGA [g15:g22:cont:t1A]	0.000365 ± 0.016	0.000397 ± 0.017
GGAGACCUAUGAUAUCAACGUUCUACCUCA	0.00048 ± 0.0088	0.000609 ± 0.0077
GGAGACCUAUGAAUUCAACGUACUACCUCA	0.00125 ± 0.0038	0.000173 ± 0.012

Sequence	pre-steady-state target cleavage rate [1]	pre-steady-state target cleavage rate [2]
GGAGACCUAUCUAUACUUGGAUGAUGGAGA [g15:g20:cont:t1A]	0.000213 ± 0.017	0.000351 ± 0.0092
GGAGACCUAUGAUAUCAACCUACUACUCUCA	0.00108 ± 0.0039	0.000319 ± 0.0043
GGAGAGGAUACUAUACAACCUACUUGGUCA	0.000761 ± 0.0068	0.00091 ± 0.0045
GGAGACCUAUGAUUACAACCUACUACCGUCA	0.00492 ± 0.0022	0.00105 ± 0.0039
GGAGACCUAUCUAUACAACCUCUACCUCA	0.00105 ± 0.0087	0.000606 ± 0.016
GGAGACCUAUGAUAUCAACCUAGAACCUCA	0.000265 ± 0.011	0.000163 ± 0.016
GGAGACCUAUGUAUUCAACCAACUACCUCA	0.00205 ± 0.0027	0.000181 ± 0.015
GGAGACCUAUGAUAUGUUCCUACUACCUCCA	0.000103 ± 0.032	0.000154 ± 0.015
GGAGACCUAACUAUACAACCUUCUACCACA	0.00271 ± 0.0056	0.194 ± 0.026
GGAGACCUAUGUAUACAACCUAUACCUCA	0.00145 ± 0.0049	0.000221 ± 0.01
GGAGACCUAUGAUAUGUUGCUACUAACUCA	0.000223 ± 0.035	0.000159 ± 0.04
GGAGACCUAACUAUACAACCAUCUACCUCA	0.00176 ± 0.0089	0.0013 ± 0.011
GGAGACCUAUCUAUACCAACCUACUACCUCA	0.00227 ± 0.0044	0.000906 ± 0.0053
GGAGACCUAUGAUAUGUUCCAACUUCCUCA	0.000109 ± 0.024	0.00011 ± 0.015
GGAGACCUAUGAUUUCAACCUUCUACCUCA	0.00225 ± 0.0026	0.000553 ± 0.0042
GGAGACCUAUGAUAACAACCUACUUGCUCA	0.00218 ± 0.0031	0.000652 ± 0.0077
GGAGACCUAUGAUACCAACCUACUACCUCA	0.00272 ± 0.0031	0.00132 ± 0.0048
GGAGACCUAUGAAUACAACCUACAUGCUCA	0.00139 ± 0.0035	0.000106 ± 0.029
GGAGACCUAUGAUAUGCACCUACUACCUCA	0.000815 ± 0.0089	0.000832 ± 0.0056
GGAGACCUAUGAUAUGUAUCUACUACCUCA	0.000124 ± 0.018	0.000321 ± 0.013
GGAGACCUAUGAAUACUACCAACUACCUCA	0.00195 ± 0.0035	0.000139 ± 0.012
GGAGACGAUACUAUACAAGCCUACUACCUCA	0.00196 ± 0.0044	0.000796 ± 0.0071

Sequence	pre-steady-state target cleavage rate [1]	pre-steady-state target cleavage rate [2]
GGAGACCUAUGUAUACAACCAACUUCCUCA	0.0018 ± 0.0034	0.0011 ± 0.0043
GGAGAGGAUACUAUACAAUCCUACUACCUCA	0.00247 ± 0.0029	0.000922 ± 0.0081
GGAGAGGAUACUAUACUAACCUACUACCUCA	0.0025 ± 0.0043	0.00122 ± 0.0074
GGAGACCUAACUAUACCAACCUACUACCUCA	0.00183 ± 0.0098	0.000957 ± 0.012
GGAGACCUAUGAAUACAACCUAGAACCUCA	0.0015 ± 0.0049	0.000309 ± 0.012
GGAGACCUAACUUAUACAACCUACUACCUCA	0.0771 ± 0.019	0.23 ± 0.041
GGAGACCUAUGAAUACAACCUAUACCUCA	0.000457 ± 0.0099	0.00014 ± 0.016
GGAGACCUAUGAUAACAACCUACUUCCUGA	0.000962 ± 0.0059	0.000183 ± 0.0098
GGAGACCUAUGAUAUGUUGCUACUAUCUCA	0.000282 ± 0.017	0.00048 ± 0.013
GGAGACCUAUGAUAACAACCUACUACCUCU [g2:g16:cont:t1U]	0.00588 ± 0.0024	0.00186 ± 0.0046
GGAGACCUAUGAAUACAACCUUACUACCUCA	0.00189 ± 0.0031	0.000265 ± 0.0057
GGAGACCUAUGAUAUGUACCAACUUCCUCA	0.000147 ± 0.015	0.000153 ± 0.0092
GGAGACCUAACUAUACAACCAAGUACCUCA	0.00119 ± 0.012	0.000588 ± 0.011
GGAGACCUAUGAUAUCAACCUCCUACCUCA	0.0026 ± 0.003	0.00184 ± 0.0024
GGAGACCUAACUAUACAACCUCACUACCUCA	0.00207 ± 0.009	0.00221 ± 0.0069
GGAGACCUAUGAAUCAACCUACUACCUCA	0.0017 ± 0.0036	0.000788 ± 0.0055
GGAGACCUAUGUAUACAACCUUCUACCUGA	0.000876 ± 0.0062	0.00204 ± 0.0035
GGAGACCUAUGAAUGACAACCUACUACCUCA	0.00305 ± 0.0041	0.000511 ± 0.0097
GGAGACCUAUGAUAAGUUCCUACUACCUCA	0.000339 ± 0.013	0.000628 ± 0.0069
GGAGACCUAUGAUAACAACCUUCUUCCUCA	0.00072 ± 0.0057	0.000174 ± 0.012
GGAGACCUAUCUAUAAACCUACUACCUCA	0.003 ± 0.0031	0.000948 ± 0.0051
GGAGACCUUACUAUACAACCUUACUACCUCA	0.00127 ± 0.0051	0.00126 ± 0.0039

No new results follow: an excerpt of the list.
Sequence	pre-steady-state target cleavage rate [1]	pre-steady-state target cleavage rate [2]
GGAGACCUAUGAAUACAACCUUACUACCUCA	0.00189 ± 0.0031	0.000265 ± 0.0057
GGAGACCUAUGAUAUGUACCAACUUCCUCA	0.000147 ± 0.015	0.000153 ± 0.0092
GGAGACCUAACUAUACAACCAAGUACCUCA	0.00119 ± 0.012	0.000588 ± 0.011
GGAGACCUAUGAUAUCAACCUCCUACCUCA	0.0026 ± 0.003	0.00184 ± 0.0024
GGAGACCUAACUAUACAACCUCACUACCUCA	0.00207 ± 0.009	0.00221 ± 0.0069
